Test results reported in article PMC11253597.
No constants are given. Whether binding was seen depends on the method and setting. In cells and extracts the contact can be indirect. Some results given as binding are weak or reduced against the parent protein; the word gives no strength. Sequences can lack the tags named with a protein.

Key:
Test in all cases: co-IP; GFP-tagged β-2-syntrophin (GFP::SNTB2) variants co-expressed with mCherry::SseM in SNTB2 KO1 HEK293 cells; GFP-trap immunoprecipitation, immunoblot
[1] = molecular target: T1, GFP::SNTB2^GLGI4A (human) (UniProt Q13425)
T1 sequence: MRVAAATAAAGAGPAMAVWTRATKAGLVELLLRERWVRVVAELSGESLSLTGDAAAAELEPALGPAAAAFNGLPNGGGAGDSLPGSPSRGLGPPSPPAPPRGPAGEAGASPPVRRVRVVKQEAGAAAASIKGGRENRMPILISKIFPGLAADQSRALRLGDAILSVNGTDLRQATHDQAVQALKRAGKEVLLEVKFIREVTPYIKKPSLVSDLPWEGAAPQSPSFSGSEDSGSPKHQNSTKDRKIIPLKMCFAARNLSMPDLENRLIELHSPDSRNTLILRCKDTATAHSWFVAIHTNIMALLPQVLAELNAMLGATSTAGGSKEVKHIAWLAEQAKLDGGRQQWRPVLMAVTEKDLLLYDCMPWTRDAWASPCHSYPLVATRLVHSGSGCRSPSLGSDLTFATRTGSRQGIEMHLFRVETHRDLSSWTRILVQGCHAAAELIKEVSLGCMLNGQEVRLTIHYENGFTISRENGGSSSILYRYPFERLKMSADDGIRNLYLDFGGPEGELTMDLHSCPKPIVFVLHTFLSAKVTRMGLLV

GFP::SNTB2 (human) = molecular target: T2, GFP::SNTB2 (human) (UniProt Q13425)
T2 sequence: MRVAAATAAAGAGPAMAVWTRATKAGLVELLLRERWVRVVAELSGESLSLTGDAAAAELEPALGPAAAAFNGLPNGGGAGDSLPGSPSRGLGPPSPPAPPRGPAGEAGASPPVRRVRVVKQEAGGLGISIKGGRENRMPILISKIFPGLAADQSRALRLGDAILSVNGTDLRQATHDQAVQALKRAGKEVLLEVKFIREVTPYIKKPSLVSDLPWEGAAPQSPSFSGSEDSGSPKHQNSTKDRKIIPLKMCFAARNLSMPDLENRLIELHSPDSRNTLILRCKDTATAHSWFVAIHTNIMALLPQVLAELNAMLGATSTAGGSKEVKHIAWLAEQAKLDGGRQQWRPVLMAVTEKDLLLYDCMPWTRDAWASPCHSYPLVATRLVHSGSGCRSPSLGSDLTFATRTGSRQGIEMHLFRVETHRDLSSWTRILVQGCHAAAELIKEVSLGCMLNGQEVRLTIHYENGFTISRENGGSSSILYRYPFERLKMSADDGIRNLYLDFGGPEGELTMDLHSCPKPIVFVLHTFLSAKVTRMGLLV

GFP::SNTB2^H176Y (human) = molecular target: T3, GFP::SNTB2^H176Y (human) (UniProt Q13425)
T3 sequence: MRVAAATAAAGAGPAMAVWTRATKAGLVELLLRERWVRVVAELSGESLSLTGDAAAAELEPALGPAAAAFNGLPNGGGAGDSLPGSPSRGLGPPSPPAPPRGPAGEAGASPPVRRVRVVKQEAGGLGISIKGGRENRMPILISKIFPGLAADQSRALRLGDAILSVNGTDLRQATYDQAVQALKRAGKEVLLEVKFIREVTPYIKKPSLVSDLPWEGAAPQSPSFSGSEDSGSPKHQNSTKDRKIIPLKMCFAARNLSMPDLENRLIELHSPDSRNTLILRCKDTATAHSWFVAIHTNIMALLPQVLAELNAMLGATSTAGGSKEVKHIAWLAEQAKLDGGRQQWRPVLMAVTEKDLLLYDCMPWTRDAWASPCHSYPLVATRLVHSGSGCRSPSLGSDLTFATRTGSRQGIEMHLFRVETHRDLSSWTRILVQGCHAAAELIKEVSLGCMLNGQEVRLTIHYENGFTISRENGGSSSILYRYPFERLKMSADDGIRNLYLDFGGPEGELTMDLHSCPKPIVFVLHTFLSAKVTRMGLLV

GFP::SNTB2^H176V (human) = molecular target: T4, GFP::SNTB2^H176V (human) (UniProt Q13425)
T4 sequence: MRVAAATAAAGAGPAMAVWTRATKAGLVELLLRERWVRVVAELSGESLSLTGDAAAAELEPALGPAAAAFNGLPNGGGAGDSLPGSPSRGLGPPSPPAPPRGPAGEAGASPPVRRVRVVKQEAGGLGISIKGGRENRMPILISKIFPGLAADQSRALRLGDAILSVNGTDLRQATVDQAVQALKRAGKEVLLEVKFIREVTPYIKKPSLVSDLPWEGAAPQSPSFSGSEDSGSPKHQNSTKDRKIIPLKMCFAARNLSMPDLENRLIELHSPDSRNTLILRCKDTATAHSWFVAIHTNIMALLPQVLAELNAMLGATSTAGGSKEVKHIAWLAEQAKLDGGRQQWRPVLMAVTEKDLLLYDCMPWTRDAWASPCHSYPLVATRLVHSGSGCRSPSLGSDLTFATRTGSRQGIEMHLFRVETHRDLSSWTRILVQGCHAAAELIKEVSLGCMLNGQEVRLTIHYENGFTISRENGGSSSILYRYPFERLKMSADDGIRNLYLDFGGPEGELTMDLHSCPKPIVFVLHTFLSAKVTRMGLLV

Measured: binding

B1: α-dystrobrevin (protein, UniProt Q9Y4J8 1-743)
chain: MIEDSGKRGNTMAERRQLFAEMRAQDLDRIRLSTYRTACKLRFVQKKCNLHLVDIWNVIEALRENALNNLDPNTELNVSRLEAVLSTIFYQLNKRMPTTHQIHVEQSISLLLNFLLAAFDPEGHGKISVFAVKMALATLCGGKIMDKLRYIFSMISDSSGVMVYGRYDQFLREVLKLPTAVFEGPSFGYTEQSARSCFSQQKKVTLNGFLDTLMSDPPPQCLVWLPLLHRLANVENVFHPVECSYCHSESMMGFRYRCQQCHNYQLCQDCFWRGHAGGSHSNQHQMKEYTSWKSPAKKLTNALSKSLSCASSREPLHPMFPDQPEKPLNLAHIVDTWPPRPVTSMNDTLFSHSVPSSGSPFITRSSPPKDSEVEQNKLLARAAPAFLKGKGIQYSLNVADRLADEHVLIGLYVNMLRNNPSCMLESSNRLDEEHRLIARYAARLAAESSSSQPPQQRSAPDISFTIDANKQQRQLIAELENKNREILQEIQRLRLEHEQASQPTPEKAQQNPTLLAELRLLRQRKDELEQRMSALQESRRELMVQLEGLMKLLKTQGAGSPRSSPSHTISRPIPMPIRSASACSTPTHTPQDSLTGVGGDVQEAFAQSSRRNLRNDLLVAADSITNTMSSLVKELNSEVGSETESNVDSEFARTQFEDLVPSPTSEKAFLAQIHARKPGYIHSGATTSTMRGDMVTEDADPYVQPEDENYENDSVRQLENELQMEEYLKQKLQDEAYQVSLQG
binds: all assays above
